# In PubChem BioAssay AID1671190 (National Center for Advancing Translational Sciences (NCATS), 2021):
# Chains of the proteins cited; added tags and fusions are not shown. Lines headed by an entry give the natural chain unless they say otherwise; changes in a name come on top.
# UniProt P18054: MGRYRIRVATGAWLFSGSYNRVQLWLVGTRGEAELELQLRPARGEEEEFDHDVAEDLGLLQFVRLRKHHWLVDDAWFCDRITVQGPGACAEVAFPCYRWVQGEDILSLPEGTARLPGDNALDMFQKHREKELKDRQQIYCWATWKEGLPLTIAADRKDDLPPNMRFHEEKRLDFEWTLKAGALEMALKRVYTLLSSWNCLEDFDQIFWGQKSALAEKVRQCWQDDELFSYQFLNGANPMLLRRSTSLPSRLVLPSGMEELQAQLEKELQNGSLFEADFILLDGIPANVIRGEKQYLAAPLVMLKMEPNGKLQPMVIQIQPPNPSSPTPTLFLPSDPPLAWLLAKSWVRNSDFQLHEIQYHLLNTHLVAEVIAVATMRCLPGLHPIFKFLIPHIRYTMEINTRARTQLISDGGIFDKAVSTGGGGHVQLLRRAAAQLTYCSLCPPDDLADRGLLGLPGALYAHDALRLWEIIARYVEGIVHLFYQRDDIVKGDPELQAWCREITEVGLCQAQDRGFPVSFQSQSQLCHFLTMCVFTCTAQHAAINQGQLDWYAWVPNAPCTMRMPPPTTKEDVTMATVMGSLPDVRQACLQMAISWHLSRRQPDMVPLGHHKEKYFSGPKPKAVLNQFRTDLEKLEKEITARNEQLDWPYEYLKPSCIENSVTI
# Hit rate of the full screen: of about 580,000 compounds, about 6,100 (1.1%) were called active. This list was built around the results that the source calls inconclusive (neither active nor inactive); the mix of calls is not that of the screen. Calls come from the whole dose curve; as a rule, active = well fitted inhibition curve with a large enough effect; inconclusive = small, poorly fitted or top-dose-only effect, or another doubt; inactive = no such curve, though single readings can be large or run the other way. Potencies beside an inconclusive call are fits to weak or partial responses and may not hold up.
# Molecular target: Polyunsaturated fatty acid lipoxygenase ALOX12 (Homo sapiens) (UniProt P18054)
# Experiment: Primary qHTS assay for inhibitors of human arachidonate 12S-lipoxygenase (ALOX12): Round 2
# Settings: purified 12hLO, xylenol orange hydroperoxide absorbance; activity change, negative = inhibition: at 108 µM (top of the series) unless noted
# In short: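 Purified human 12hLO (150 nM final) in 25 mM Hepes, 0.01% Triton X-100, pH 7.0 was preincubated 15 min at room temperature with compound. Then 40 uM arachidonic acid was added, 30 min. Hydroperoxide was read by Fe-XO absorbance ratio 573/405 nm.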
# % is set by controls: 0 for no effect and ±100 for the full control effect; potency is the fitted concentration of half-maximal effect.
SMILES,"activity change, negative = inhibition",Potency
Cc1ccc(-c2cc3c(=O)n(CCNC(=O)C4CCCCC4)ccn3n2)c(C)c1,inactive: 24.7%,
O=C(Nc1cccc2nsnc12)c1cc2c(cc1Cl)Sc1nccn1S2(=O)=O,,"inconclusive: 35.5 µM [inhibitor, partial curve]"
COc1ccccc1OCCNC1CCCC1,,"inconclusive: 14.1 µM [inhibitor, partial curve, poor fit]"
COc1cccc2c(Cl)c(CC=C(Cl)Cl)c(C)nc12,inactive: -11.7%,
Cc1cccc(-c2cc(C(=O)O)c3cc(C)ccc3n2)c1,,"inconclusive: 89.1 µM [inhibitor, partial curve, poor fit]"
O=C(CCc1cc(Cl)no1)N(CCS(=O)(=O)N1CCOCC1)Cc1cccnc1,,"inconclusive: 5.01 µM [inhibitor, full curve, poor fit]"
Cc1nc(C)c(C(=O)N2CCCC(C(=O)NCc3ccccc3)CCNC(=O)CC2)s1 (configuration not stated),inactive: -1.73%,
O=C(Nc1sc2c(c1-c1nc3ccccc3[nH]1)CCCC2)C1CCCC1,inactive: -35%,
Cc1sc(NC(=O)c2ccc3c(c2)OCO3)c(C#N)c1C,,"inconclusive: 25.1 µM [inhibitor, partial curve]"
C=CCNc1ncnc2c1cnn2-c1ccc(C)cc1C,,"inconclusive: 100 µM [inhibitor, single point]"
O=c1[nH]c2ccc(S(=O)(=O)Nc3c(NC4CCCCC4)c4ccccc4oc3=O)cc2o1,,active: 39.8 µM
CCc1nccc(CN2CCCC(CC3CC3)(C(=O)O)C2)n1 (configuration not stated),,"inconclusive: 3.16 µM [inhibitor, full curve, poor fit]"
Cc1nn(-c2cc(N3CCN(C(=O)C(C)(C)C)CC3)ccc2[N+](=O)[O-])c(=O)c2ccccc12,inactive: 6.48%,
Cc1cc(C)c(CN2CCCC23Cc2ccccc2CNC3=O)c(C)c1 (configuration not stated),,"inconclusive: 100 µM [inhibitor, partial curve, poor fit]"
O=C(CCC(=O)Nc1ccccc1)NNS(=O)(=O)c1ccc(Cl)cc1,,"inconclusive: 31.6 µM [inhibitor, partial curve, poor fit]"
COc1ccc(C(=O)OCC(=O)NCC(F)(F)F)cc1,,"inconclusive: 39.8 µM [inhibitor, partial curve, poor fit]"
CCOC(=O)N1CCN([N+]([O-])=NOc2ccc([N+](=O)[O-])cc2C#N)CC1,inactive: 16.4% [at 57.4 µM],
Cc1noc(NS(=O)(=O)c2ccc(NC(=O)c3ccccc3NS(=O)(=O)c3ccc(F)c(F)c3)cc2)c1C,,"inconclusive: 126 µM [inhibitor, single point]"
O=C(OCc1ccco1)c1cccnc1,inactive: -6.67%,
O=C(CN1C(=O)/C(=C/c2ccco2)SC1=S)Nc1ccc(C(=O)O)c(O)c1,,active: 28.2 µM
CCCn1c(N)c(C(=O)COC(=O)/C=C/c2ccc(OC(F)F)c(OC)c2)c(=O)[nH]c1=O,,"inconclusive: 141 µM [inhibitor, single point]"
C/C(=N\NC(=O)c1ccc(Cn2cc(Br)cn2)o1)c1cccc(NC(=O)C(C)C)c1,inactive: -8.76%,
COc1cccc([S+](=O)([O-])N2CCn3cc(C(=O)Nc4ccc(Cl)cc4Cl)nc3C2)c1,,"inconclusive: 100 µM [inhibitor, single point]"

# For convenience, 2 of the compounds above:
SMILES,"activity change, negative = inhibition",Potency
O=C(CCc1cc(Cl)no1)N(CCS(=O)(=O)N1CCOCC1)Cc1cccnc1,,"inconclusive: 5.01 µM [inhibitor, full curve, poor fit]"
Cc1nc(C)c(C(=O)N2CCCC(C(=O)NCc3ccccc3)CCNC(=O)CC2)s1 (configuration not stated),inactive: -1.73%,

# Additional results follow.

SMILES,"activity change, negative = inhibition",Potency
COc1ccccc1-c1nc(-c2cccc(NC(=O)Nc3ccc(F)cc3)c2)no1,inactive: 1.26%,
CCc1nc2c(c(-c3ccc(OC)cc3)n1)CN(C(=O)c1ccccc1OC)CC2,inactive: 12.2% [at 6.33 µM],
Cc1ccc(S(=O)(=O)N2CCN(CC(=O)N/N=C/c3ccccc3OCC(=O)O)CC2)cc1,inactive: 2.22%,
O=C(O)C1(c2ccc(Cl)cc2)CCCCC1,inactive: -1.54%,
O=Cc1cc(Cl)cc(Cl)c1O,,"inconclusive: 44.7 µM [inhibitor, partial curve, poor fit]"
CC(C)(O)CCc1ccc(CN2CCN([C@H]3CCCC[C@@H]3O)CC2)cc1,inactive: 9.76%,
CN(C)c1ccc(-c2nc3ccccn3c2Nc2ccc3c(c2)OCCO3)cc1,,"inconclusive: 7.94 µM [inhibitor, full curve, poor fit]"
CCCNC(=S)Nc1cc(Cl)c(N)c(Cl)c1,,"inconclusive: 79.4 µM [inhibitor, partial curve, poor fit]"
CN(C)c1ncc2nc(-c3ccc(F)cc3)c(=O)n(C3CC3)c2n1,,"inconclusive: 28.2 µM [inhibitor, partial curve, poor fit]"
Cc1ccc([C@@H]2CC=C(C(=O)O)[C@H](c3ccc(Cl)cc3)N2S(=O)(=O)c2ccccc2C)cc1,,"inconclusive: 100 µM [inhibitor, partial curve, poor fit]"
COc1ccccc1NS(=O)(=O)c1cc(NC(=S)NCCN2CCOCC2)ccc1N1CCOCC1,,active: 50.1 µM
Cn1cc(-c2csc(C(O)(c3ccccc3)C(F)(F)F)n2)cn1 (configuration not stated),,"inconclusive: 112 µM [inhibitor, single point]"
Cc1ccc(OCCNC(=O)[C@H]2O[C@@H](n3ccc(=O)[nH]c3=O)[C@H](O)[C@@H]2O)cc1C,,"inconclusive: 100 µM [inhibitor, partial curve, poor fit]"
COc1ccc(C2(c3ccc(OC)cc3)NC(=O)NC2=O)cc1,,"inconclusive: 89.1 µM [inhibitor, partial curve, poor fit]"
CC1(C)CC(=O)C2=C(C1)C(c1ccco1)Nc1ccc3ccccc3c12 (configuration not stated),,"inconclusive: 35.5 µM [inhibitor, partial curve, poor fit]"
COc1ccc(C2C3=C(COC3=O)Nc3c2c(=O)[nH]c(=O)n3CC(C)C)cc1 (configuration not stated),inconclusive: -32.3% [inhibitor],
COC(=O)CC(NC(=O)Cc1ccc(Cl)c(Cl)c1)c1cccs1 (configuration not stated),,"inconclusive: 31.6 µM [inhibitor, single point]"
CCOC(=O)CC[C@H](NC(=O)Cn1cc(C)c(=O)[nH]c1=O)C(=O)OCC,,"inconclusive: 39.8 µM [inhibitor, partial curve, poor fit]"
Cc1csc(NC(=O)CCc2ncc(-c3c(F)cccc3F)o2)n1,,"inconclusive: 50.1 µM [inhibitor, single point]"
Cc1c(O)ccc2c(CN(C)CCOc3ccccc3)cc(=O)oc12,,"inconclusive: 63.1 µM [inhibitor, partial curve, poor fit]"
O/N=C(\c1ccc(Cl)cc1)c1ccco1,,"inconclusive: 35.5 µM [inhibitor, partial curve, poor fit]"
COc1c(C)cc(C(O)c2ncc(-c3ccccc3C(F)(F)F)[nH]2)cc1C (configuration not stated),inactive: 0.748%,
COc1ccccc1/C=C/C=c1\sc2nc(=O)c(Cc3ccccc3)nn2c1=O,,"inconclusive: 3.16 µM [inhibitor, full curve, poor fit]"

# Single records, from the list above.
# COC(=O)CC(NC(=O)Cc1ccc(Cl)c(Cl)c1)c1cccs1 (configuration not stated) reads Potency: inconclusive: 31.6 µM [inhibitor, single point]
# Cc1ccc([C@@H]2CC=C(C(=O)O)[C@H](c3ccc(Cl)cc3)N2S(=O)(=O)c2ccccc2C)cc1 reads Potency: inconclusive: 100 µM [inhibitor, partial curve, poor fit]

# Following part

SMILES,"activity change, negative = inhibition",Potency
O=C(C1CCC1)N1CCN(C(=O)Cc2ccsc2)[C@H]2CS(=O)(=O)C[C@H]21,inactive: 9.66%,
COc1cc2c(c3oc(=O)cc(CC(=O)O)c13)CCC(C)(C)O2,,"inconclusive: 112 µM [inhibitor, partial curve, poor fit]"
O=C(O)c1ccc(-c2cc(Cl)cc(Cl)c2)s1,,"inconclusive: 50.1 µM [inhibitor, partial curve, poor fit]"
Clc1ccc(C(c2cccs2)N2CCNCC2)cc1 (configuration not stated),inactive: -13.2%,
Cc1c(NC2=NS(=O)(=O)c3ccccc32)cccc1C(=O)O,,"inconclusive: 39.8 µM [inhibitor, partial curve, poor fit]"
CC1CCc2c(sc3ncnc(N4CCS(=O)CC4)c23)C1 (configuration not stated),,"inconclusive: 35.5 µM [inhibitor, partial curve, poor fit]"
Cc1ccc(C(=O)OCC(=O)Nc2ccccc2N2CCCC2=O)c(O)c1,,"inconclusive: 50.1 µM [inhibitor, partial curve, poor fit]"
N#Cc1ccccc1S(=O)(=O)N[C@H]1CO[C@H]2[C@@H]1OC[C@@H]2n1nnnc1-c1ccc2c(c1)OCO2,inactive: 24.5%,
CC1(C)Cc2c(C#N)c(OCC(=O)Nc3ccccc3)nc(N3CCOCC3)c2CO1,,"inconclusive: 25.1 µM [inhibitor, single point]"
CCOC(=O)c1cc(C)n(CCCN2CCOCC2)c1C,,"inconclusive: 10 µM [inhibitor, full curve, poor fit]"
CC(=O)C1=C(O)CC(c2ccccc2)CC1=NCCc1ccccc1 (configuration not stated),inactive: 2.72%,
COc1cccc(NC(=O)CSc2nnc(NC(=O)NC3CCCCC3)s2)c1,,"inconclusive: 10 µM [inhibitor, full curve, poor fit]"
COC(=O)c1ccccc1NC(=S)N(Cc1ccc2c(c1)OCO2)Cc1cc2ccc(C)cc2[nH]c1=O,,"inconclusive: 6.31 µM [inhibitor, full curve, poor fit]"
Cc1ccc(C2NC(=O)c3n[nH]c(C)c32)cc1 (configuration not stated),,"inconclusive: 4.47 µM [inhibitor, full curve, poor fit]"
COc1ccccc1N1CCN(C(=O)CCc2nnc3ccc(N4CCOCC4)nn23)CC1,inactive: 11%,
O=C(c1ccc(F)cc1Cl)N1CCC(n2cc(-c3nc(C4CC4)no3)nn2)C1 (configuration not stated),,"inconclusive: 35.5 µM [inhibitor, full curve, poor fit]"
Cc1cc(C)c(C#N)c(SCC(=O)c2cccs2)n1,inactive: 0%,
CC(C)CNC(=O)c1cc(-c2ccccc2F)cc2c1OCCN2Cc1cccnc1,inactive: 2% [at 176 µM],
COc1ccc(NC(=O)N2CCCC(Cc3noc(-c4cnccn4)n3)C2)cc1 (configuration not stated),inactive: 21.1%,
COc1ccc(C(=O)N2CCN(Cc3cc(OC)c(O)c(OC)c3)CC2)cc1OC,,"inconclusive: 0.282 µM [inhibitor, full curve, poor fit]"
COC(=O)c1cccc(NC(=O)c2ccc(OC)c(Cl)c2)c1,,"inconclusive: 35.5 µM [inhibitor, single point]"
